# According to PMC3360616:
# No constants are given. Whether binding was seen depends on the method and setting. Binding seen in cells or lysates may run through a third protein. Some binding calls cover weakened binding; strength is not graded here. Sequences can lack the tags named with a protein.
# T1: Flag-SDS3 (full length human suppressor of defective silencing 3) (human) (UniProt Q9H7L9)
# T1 sequence: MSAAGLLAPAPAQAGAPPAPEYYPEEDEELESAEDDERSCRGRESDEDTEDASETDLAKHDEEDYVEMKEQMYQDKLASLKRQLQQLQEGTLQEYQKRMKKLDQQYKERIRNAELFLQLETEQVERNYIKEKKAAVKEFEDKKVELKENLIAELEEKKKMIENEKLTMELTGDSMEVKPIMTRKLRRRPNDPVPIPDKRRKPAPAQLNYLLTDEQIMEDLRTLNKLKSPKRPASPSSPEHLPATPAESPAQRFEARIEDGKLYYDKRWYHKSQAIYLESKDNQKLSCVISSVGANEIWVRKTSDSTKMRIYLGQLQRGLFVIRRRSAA
# T2: Flag-SDS3ΔHABMs (SDS3 lacking the three consecutive hyaluronan binding motifs) (human) (UniProt Q9H7L9)
# T2 sequence: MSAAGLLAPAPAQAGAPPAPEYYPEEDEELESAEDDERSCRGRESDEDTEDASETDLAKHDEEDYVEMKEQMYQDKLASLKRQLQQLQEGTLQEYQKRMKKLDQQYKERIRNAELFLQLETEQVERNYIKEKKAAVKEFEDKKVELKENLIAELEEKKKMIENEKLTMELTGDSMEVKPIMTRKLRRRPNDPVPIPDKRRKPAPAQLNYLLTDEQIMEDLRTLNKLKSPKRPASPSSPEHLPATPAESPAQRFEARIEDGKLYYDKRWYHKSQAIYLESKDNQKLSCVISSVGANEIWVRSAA
# B1: myc-USP17 (full length USP17 deubiquitinating enzyme) (enzyme, UniProt Q6R6M4 1-530)
# chain: MEDDSLYLGGEWQFNHFSKLTSSRPDAAFAEIQRTSLPEKSPLSSEARVDLCDDLAPVARQLAPRKKLPLSSRRPAAVGAGLQNMGNTCYENASLQCLTYTPPLANYMLSREHSQTCQRPKCCMLCTMQAHITWALHSPGHVIQPSQALAAGFHRGKQEDAHEFLMFTVDAMKKACLPGHKQVDHHSKDTTLIHQIFGGCWRSQIKCLHCHGISDTFDPYLDIALDIQAAQSVKQALEQLVKPEELNGENAYHCGLCLQRAPASKTLTLHTSAKVLILVLKRFSDVTGNKLAKNVQYPECLDMQPYMSQQNTGPLVYVLYAVLVHAGWSCHDGHYFSYVKAQEGQWYKMDDAKVTACSITSVLSQQAYVLFYIQKSEWERHSESVSRGREPRALGAEDTDRRATQGELKRDHPCLQAPELDERLVERATQESTLDHWKFPQEQNKTKPEFNVRKVEGTLPPNVLVIHQSKYKCGMKNHHPEQQSSLLNLSSTTRTDQESVNTGTLASLQGRTRRSKGKNKHSKRALLVCQ
# B2: myc-USP17ΔHABMs (USP17 lacking both hyaluronan binding motifs) (enzyme, UniProt Q6R6M4)
# chain: MEDDSLYLGGEWQFNHFSKLTSSRPDAAFAEIQRTSLPEKSPLSSEARVDLCDDLAPVARQLAPRKKLPLSSRRPAAVGAGLQNMGNTCYENASLQCLTYTPPLANYMLSREHSQTCQRPKCCMLCTMQAHITWALHSPGHVIQPSQALAAGFHRGKQEDAHEFLMFTVDAMKKACLPGHKQVDHHSKDTTLIHQIFGGCWRSQIKCLHCHGISDTFDPYLDIALDIQAAQSVKQALEQLVKPEELNGENAYHCGLCLQRAPASKTLTLHTSAKVLILVLKRFSDVTGNKLAKNVQYPECLDMQPYMSQQNTGPLVYVLYAVLVHAGWSCHDGHYFSYVKAQEGQWYKMDDAKVTACSITSVLSQQAYVLFYIQKSEWERHSESVSRGREPRALGAEDTDDHPCLQAPELDERLVERATQESTLDHWKFPQEQNKVEGTLPPNVLVIHQSKYKCGMKNHHPEQQSSLLNLSSTTRTDQESVNTGTLASLQGRTRRSKGKNKHSKRALLVCQ
# B3: myc-USP17ΔHABM1 (first HABM deleted USP17) (enzyme, UniProt Q6R6M4)
# chain: MEDDSLYLGGEWQFNHFSKLTSSRPDAAFAEIQRTSLPEKSPLSSEARVDLCDDLAPVARQLAPRKKLPLSSRRPAAVGAGLQNMGNTCYENASLQCLTYTPPLANYMLSREHSQTCQRPKCCMLCTMQAHITWALHSPGHVIQPSQALAAGFHRGKQEDAHEFLMFTVDAMKKACLPGHKQVDHHSKDTTLIHQIFGGCWRSQIKCLHCHGISDTFDPYLDIALDIQAAQSVKQALEQLVKPEELNGENAYHCGLCLQRAPASKTLTLHTSAKVLILVLKRFSDVTGNKLAKNVQYPECLDMQPYMSQQNTGPLVYVLYAVLVHAGWSCHDGHYFSYVKAQEGQWYKMDDAKVTACSITSVLSQQAYVLFYIQKSEWERHSESVSRGREPRALGAEDTDDHPCLQAPELDERLVERATQESTLDHWKFPQEQNKTKPEFNVRKVEGTLPPNVLVIHQSKYKCGMKNHHPEQQSSLLNLSSTTRTDQESVNTGTLASLQGRTRRSKGKNKHSKRALLVCQ
# B4: myc-USP17ΔHABM2 (second HABM deleted USP17) (enzyme, UniProt Q6R6M4)
# chain: MEDDSLYLGGEWQFNHFSKLTSSRPDAAFAEIQRTSLPEKSPLSSEARVDLCDDLAPVARQLAPRKKLPLSSRRPAAVGAGLQNMGNTCYENASLQCLTYTPPLANYMLSREHSQTCQRPKCCMLCTMQAHITWALHSPGHVIQPSQALAAGFHRGKQEDAHEFLMFTVDAMKKACLPGHKQVDHHSKDTTLIHQIFGGCWRSQIKCLHCHGISDTFDPYLDIALDIQAAQSVKQALEQLVKPEELNGENAYHCGLCLQRAPASKTLTLHTSAKVLILVLKRFSDVTGNKLAKNVQYPECLDMQPYMSQQNTGPLVYVLYAVLVHAGWSCHDGHYFSYVKAQEGQWYKMDDAKVTACSITSVLSQQAYVLFYIQKSEWERHSESVSRGREPRALGAEDTDRRATQGELKRDHPCLQAPELDERLVERATQESTLDHWKFPQEQNKVEGTLPPNVLVIHQSKYKCGMKNHHPEQQSSLLNLSSTTRTDQESVNTGTLASLQGRTRRSKGKNKHSKRALLVCQ
# Columns and labels:
# [1] = target: T1, Flag-SDS3 (full length human suppressor of defective silencing 3) (human); assay: co-IP; HeLa cells transfected with myc-USP17 and Flag-SDS3 constructs; co-immunoprecipitation with either an anti-myc or an anti-Flag antibody, immunoblot
# [2] = target: T2, Flag-SDS3ΔHABMs (SDS3 lacking the three consecutive hyaluronan binding motifs) (human); assay: as above
binding [1],binding [2],Binder
binds,,B1
binds,binds,B2
binds,,B3
binds weakly,,B4
